According to patent publication US20030207791A1, “Materials and methods relating to the treatment of leukaemias” (priority 2000, published 2003):
At least one compound was matched to its structure with a doubt left.

System: p53-RAR expressing murine primary haemopoietic precursors
Experiment: RA relief of differentiation block in transduced murine primary haemopoietic precursors
Assay type: cell-based
Details: all RA concentrations

CC1=C(/C=C/C(C)=C/C=C/C(C)=C/C(=O)O)C(C)(C)CCC1 [RA, retinoic acid]
relief of the differentiation block by RA: insensitive to RA treatment at all concentrations
